Some of the results follow. Shown are side measurements of this screen, not its main read-out; they come without a call. Compounds called inactive in the main read-out are mostly missing here. The note in brackets gives the kind of curve behind each potency; many fits are weak.
Assay: qHTS Assay to Find Inhibitors of Chronic Active B-Cell Receptor Signaling
Conditions: ABC-DLBCL IkBa-CBG/CBR reporter, luminescence ratio (green luciferase fused to IkBa over red control in TMD8 lymphoma cells), 4 h
How it was run: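 TMD8 ABC-DLBCL cells carrying doxycycline-inducible green luciferase fused to IkappaBalpha plus unfused red luciferase were exposed to compounds (up to 46 uM) for 4 hrs at 37C. Activity came from the overlap-corrected green/red luminescence ratio.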

[1] = measured here: CBR red luminescence, cell number
[2] = measured here: IkBa-CBG green luminescence

Row | Compound | AC50 [1] | AC50 [2]
1 | COc1ccccc1N1C(=O)[C@@H]2[C@H](C1=O)[C@H](C(=O)c1ccc(OC(C)=O)cc1)N1N=CC=C[C@@H]21 | 12.6 µM [falling, partial curve] | 
2 | CC(=O)Nc1ccc(NCN2C(=O)[C@@H]3[C@H]4CC[C@H](C4)[C@@H]3C2=O)cc1 | 7.31 µM [rising, single point] | 
3 | CCOC(=O)N1CCc2c(sc(NC(=O)c3ccc(Cl)s3)c2C(N)=O)C1 | 8.2 µM [falling, partial curve] | 23.1 µM [rising, partial curve, poor fit]
4 | O=S(=O)(Nc1ccc(O)c2ccccc12)c1cccs1 | 35.5 µM [falling, single point] | 
5 | Cc1nc(Cl)c(C(=O)NC(=O)Nc2cccc(C(F)(F)F)c2)c(C)c1[N+](=O)[O-] | 0.058 µM [falling, partial curve, poor fit] | 
6 | O=C(Cc1cccs1)NCc1cccc(Br)c1 | 15.8 µM [rising, single point] | 
7 | CC(=O)Oc1ccc(C(=O)Nc2cc(C)on2)cc1 | 14.1 µM [falling, single point] | 
8 | CCc1c(-c2ccccc2)nc2nc(C)c(C)nn12 | 13 µM [rising, partial curve, poor fit] | 
9 | CCNC(=S)N1CCC(Cc2ccccc2)CC1 | 12.6 µM [falling, partial curve, poor fit] | 
10 | COc1ccc(CC(=O)Nc2ccc(C(=O)Nc3ccccc3C(=O)O)cc2)cc1OC | 23.1 µM [falling, single point] | 
11 | COc1cccc(N(C(=O)Cc2cccs2)C(C(=O)NC2CCCC2)c2ccncc2)c1 (configuration not stated) | 14.1 µM [rising, partial curve, poor fit] | 
12 | CCNc1nc(NC(C)C)nc(N(C#N)Cc2ccccc2)n1 | 1.64 µM [falling, full curve] | 
13 | CCOc1ccccc1NC(=O)CSc1n[nH]c(N)n1 | 8.91 µM [falling, partial curve] | 
14 | CC(=O)Nc1ccc(NC(=O)c2nc(-c3ccccc3)oc2C)cc1 | 31.6 µM [falling, partial curve, poor fit] | 
15 | COc1ccc(-c2nc(CS(=O)CC(=O)NCCCN3CCOCC3)c(C)o2)cc1OC (configuration not stated) | 5.62 µM [falling, partial curve, poor fit] | 
16 | CSc1ccc(/C=C/c2nc3ccccc3n2S(=O)(=O)c2ccc(F)c(C)c2)cc1 | 7.08 µM [falling, partial curve] | 
17 | NC(=O)c1ccc(Cn2c(C(=O)c3ccc(Cl)cc3)c3ccccc3[n+]2[O-])cc1 | 4.61 µM [falling, single point] | 
18 | O=C(NCc1ccc(F)cc1)Nc1cccc([N+](=O)[O-])c1 | 5.62 µM [rising, full curve, poor fit] | 
19 | Cc1ccc2c(NC(=S)NC(=O)c3ccccc3)cccc2n1 | 3.55 µM [falling, partial curve, poor fit] | 
20 | COc1ccccc1-c1cc(C(=O)NCc2ccc(Cl)cc2)no1 | 5.62 µM [falling, full curve, poor fit] | 
21 | Fc1ccc(/C=N/Nc2cc(N3CCOCC3)ncn2)cc1 | 7.94 µM [rising, partial curve] | 

Row | Compound | AC50 [1] | AC50 [2]
22 | CCN1C(=O)c2ccccc2S(=O)c2ccc(C(=O)NCCN(CC(C)C)CC(C)C)cc21 (configuration not stated) | 35.5 µM [falling, single point] | 
23 | CCOC(=O)N1CCC(NC(=S)Nc2ccc3nc(N4CCN(CC)CC4)cc(C)c3c2)CC1 | 7.08 µM [falling, partial curve] | 14.1 µM [rising, partial curve, poor fit]
24 | CC1=C([N+](=O)[O-])C(c2cccc(Br)c2)C2=C(N1)c1ccccc1C2=O (configuration not stated) | 1.84 µM [rising, partial curve, poor fit] | 1.84 µM [falling, partial curve, poor fit]
25 | COc1ccccc1C(=O)NCCC(=O)NCC1COc2ccccc2O1 (configuration not stated) | 29.1 µM [rising, single point] | 
26 | CNC(=O)NC(=O)C(C)OC(=O)CCCSc1nc2ccccc2s1 (configuration not stated) | 7.31 µM [falling, partial curve] | 
27 | Cc1ccc(-c2cc(C(=O)Nc3ccc(S(=O)(=O)Nc4nccs4)cc3)c3ccccc3n2)c(C)c1 |  | 13 µM [rising, partial curve, poor fit]
28 | NC(=O)c1cccnc1Sc1ccc(Cl)cc1 | 0.13 µM [rising, full curve, poor fit] | 
29 | CCOCCCNC(=O)C(NC(=O)CNC(C)=O)c1ccc(C)cc1 (configuration not stated) | 7.31 µM [rising, partial curve, poor fit] | 
30 | CN(C)c1ccc(-c2noc(-c3ccccc3O)n2)cc1 | 0.562 µM [falling, full curve, poor fit] | 
31 | C=CCSc1nc(C)c(CCCC)c(=O)[nH]1 | 10 µM [rising, partial curve] | 
32 | O=C(CSc1nncc2ccccc12)N1CCOCC1 | 35.5 µM [falling, partial curve, poor fit] | 
33 | COC(=O)C1=C(C)N(Cc2ccc(C)cc2)C(=O)/C1=C\c1cc(OC)c(OC)c(OC)c1 | 18.4 µM [falling, single point] | 
34 | CC1CCN(c2ccc(C(=O)NCc3ccco3)cc2[N+](=O)[O-])CC1 | 1.16 µM [rising, full curve, poor fit] | 
35 | Cc1cccc(NC(=O)CSc2nc(C)c(Cc3ccccc3)c(=O)[nH]2)c1C | 7.94 µM [rising, partial curve, poor fit] | 
36 | CCNS(=O)(=O)c1cc(OC)c(Cl)cc1OC | 13 µM [rising, partial curve, poor fit] | 
37 | COc1ccc(C(=O)OCCNC(=O)c2ccncc2)cc1OC | 18.4 µM [rising, partial curve, poor fit] | 
38 | NC(N)=N/N=C/c1ccc(OCc2ccccc2)cc1 |  | 14.1 µM [falling, partial curve, poor fit]
39 | CC(=O)c1c(C)[nH]c(C(=O)Nc2ccc(C)cn2)c1C | 0.731 µM [rising, full curve, poor fit] | 
40 | O=C(CCc1nc2ccccc2s1)N1CCN(c2ccccc2)CC1 | 12.6 µM [rising, partial curve, poor fit] | 
41 | CCN1C(N(C)CCc2cccs2)=N[C@@H](c2ccccc2)C(C(=O)OC)=C1C | 12.6 µM [falling, partial curve] | 
42 | COc1cc(OC)c(C2=NOC(C(=O)Nc3cc(C)nn3-c3ccccc3)C2)cc1Cl (configuration not stated) | 0.184 µM [rising, full curve, poor fit] | 

Some of these compounds in order of heavy-atom count, largest number first:
Row | Compound | AC50 [1] | AC50 [2]
34 | CC1CCN(c2ccc(C(=O)NCc3ccco3)cc2[N+](=O)[O-])CC1 | 1.16 µM [rising, full curve, poor fit] | 
32 | O=C(CSc1nncc2ccccc12)N1CCOCC1 | 35.5 µM [falling, partial curve, poor fit] | 
28 | NC(=O)c1cccnc1Sc1ccc(Cl)cc1 | 0.13 µM [rising, full curve, poor fit] | 

Remaining list, next part:

Row | Compound | AC50 [1] | AC50 [2]
43 | COC(=O)c1ccc(COC(=O)CNC(=O)c2ccc(OC)cc2)cc1 | 16.4 µM [falling, single point] | 
44 | CCN(CC)C(=O)c1cnn(-c2ccccc2)c1NC(=O)c1cccc(F)c1 | 25.9 µM [rising, single point] | 
45 | COc1ccc(N2CCN(S(=O)(=O)c3ccc(Cl)s3)CC2)cc1 | 35.5 µM [rising, single point] | 
46 | COc1c(Cl)cc(-c2noc(C)c2C(=O)NC(C)C)cc1Cl | 9.2 µM [rising, partial curve, poor fit] | 
47 | Cc1cc(N2CCOCC2)nc(-c2ccccc2O)n1 | 3.66 µM [falling, full curve] | 
48 | COc1ccc(C(CCNC(C)c2ccccc2)c2ccc(F)cc2)cc1 (configuration not stated) | 14.6 µM [falling, single point] | 
49 | COc1ccccc1N=CC=C1OC(C)(C)C(C)(C)O1 | 35.5 µM [falling, single point] | 17.8 µM [falling, partial curve, poor fit]
50 | CCOC(=O)N1CCC(NCCNC(=O)c2ccco2)CC1 | 2 µM [rising, partial curve, poor fit] | 
51 | COc1ccc(-c2c(C)oc3cc(O)cc(O)c3c2=O)cc1OC | 29.1 µM [rising, single point] | 
52 | CCSC1=C(C#N)C(c2ccccc2Cl)C(C(=O)c2cccs2)C(O)(C(F)(F)F)N1 (configuration not stated) | 16.4 µM [falling, partial curve] | 20.6 µM [rising, partial curve, poor fit]
53 | CC(=O)c1cccc(NC(=O)COC(=O)c2n[nH]c3ccccc23)c1 | 35.5 µM [falling, single point] | 
54 | COc1ccc(/C=C/C(=O)Nc2cccnc2)cc1OC | 10 µM [falling, partial curve] | 
55 | Cc1ccc(OCc2cc(C(=O)NCc3cn4ccccc4n3)no2)cc1C | 25.1 µM [falling, single point] | 
56 | Cc1ccc2c(c1Br)/C(=N/N1C(=O)c3ccccc3C1=O)C(=O)N2 | 35.5 µM [falling, single point] | 
57 | O=C(Nc1ccc(-c2cscn2)cc1)C1CCCN(Cc2ccccc2)C1 (configuration not stated) | 35.5 µM [falling, single point] | 
58 | O=c1oc2ccccc2c2nccnc12 | 2.06 µM [falling, single point] | 
59 | COc1cc(N)c(Cl)cc1C(=O)N[C@@H]1CCN(CCCOc2ccc(F)cc2)C[C@@H]1OC | 14.1 µM [falling, single point] | 
60 | COc1ccc(N2CCN(S(=O)(=O)CCNC(=O)Cc3ccc([N+](=O)[O-])cc3)CC2)cc1 | 0.1 µM [rising, full curve, poor fit] | 
61 | Cc1ccccc1Cn1cc(NC(=O)c2nc3ncccn3n2)cn1 | 6.51 µM [falling, single point] | 
62 | O=C(COC(=O)CN1C(=O)c2ccccc2C1=O)Nc1cccc(F)c1 | 5.17 µM [rising, partial curve] | 
